# From PubChem BioAssay AID493014 (National Center for Advancing Translational Sciences (NCATS), 2011)
# Values joined by “and” are separate entries in the source; they are usually repeats but may differ in a detail not shown here. Identical values can stand only once. Screen size: about 340,000 compounds; about 170 (0.05%) were called active. Inconclusive means that the source gave no clear call. Such entries were picked first, then a sample of the others. Calls follow the shape of the dose curve; as a rule, active = well fitted inhibition curve with a large enough effect in the signal ratio, with a control signal flat (not every such curve was filed as active); inconclusive = small, poorly fitted or top-dose-only effect, or effect the other way, or a change in a side signal; inactive = flat fitted curve, though single readings scatter; the % refers to the signal ratio. A potency beside an inconclusive call is a rough fit, not a confirmed value.
# Assay: qHTS Assay to Find Inhibitors of Chronic Active B-Cell Receptor Signaling;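 as to activity change, negative = inhibition: plate controls were basal doxycycline-induced cells for no effect and cells given 10 µM MG132 for full effect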
# Conditions: ABC-DLBCL IkBa-CBG/CBR reporter, luminescence ratio (green luciferase fused to IkBa over red control in TMD8 lymphoma cells), 4 h; activity change, negative = inhibition: at 46.1 µM (top of the series) unless noted
# Procedure, shortened: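 TMD8 human ABC-DLBCL cells with doxycycline-inducible IκBα–green luciferase fusion and unfused red luciferase, in 0.5% FBS medium; compounds up to 46 uM, 4 h at 37C. Green/red luminescence ratio, filter-overlap corrected, fitted to concentration-response curves.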
# Potency is read from the fitted curve at half-maximal effect.
Compound,Potency,"activity change, negative = inhibition"
Cc1ccccc1C(=O)Nc1nnc(-c2ccco2)o1,"inconclusive: 35.5 µM [rising, single point]",–
O=c1oc(-c2ccc(O)c(O)c2)cc2cc(O)cc(O)c12,–,inconclusive: -12.4%
CCN(c1ccccc1)S(=O)(=O)c1cc(C(=O)Nc2ccc(Br)cc2)ccc1F,–,inconclusive: -0.119% and inconclusive: 24.7%
N/C(=N\OC(=O)c1cccc(F)c1)c1ccccn1,"inconclusive: 31.6 µM [falling, partial curve]",–
CC1Cc2ccccc2N1C(=O)CN(C)CC(=O)Nc1ccc(OC(F)(F)F)cc1 (stereo unspecified),–,inactive
O=[N+]([O-])c1cc(/C=N/n2c(-c3ccncc3)n[nH]c2=S)ccc1Cl,"inconclusive: 35.5 µM [rising, single point]",–
CN1c2ccccc2-c2nc3ccccc3n2C1c1ccco1 (stereo unspecified),–,inconclusive: -0.183%
OC(COc1ccc2c(c1)CCC2)CN1CCN(c2ccccc2F)CC1 (stereo unspecified),–,inactive
C/C=C(/C)C(=O)Nc1cccc(C2=NOC3(C2)C[C@@H](C(N)=O)N(C(=O)c2ccc(OC)cc2)C3)c1 (stereo partly specified),"inconclusive: 10 µM [falling, partial curve, poor fit]",–
O=[N+]([O-])c1cccc(CSc2cccc[n+]2[O-])c1,–,inconclusive: -0.326%
CCOC(=O)c1c(C)[nH]c(C(=O)N2CCCC(C(=O)c3cccc(OC)c3)C2)c1C (stereo unspecified),–,inconclusive: 14.1%
COCCC(=O)N1CCCC(CCC(=O)NCc2ccc(F)c(F)c2)C1 (stereo unspecified),–,inactive
O=C(c1ccccn1)N1CCCC(N2CCN(c3cccc(C(F)(F)F)c3)CC2)C1 (stereo unspecified),–,inactive
CCOc1ccc(CN2CCN(CC3=Cc4cccc(OC)c4OC3)CC2CCO)cc1 (stereo unspecified),"inconclusive: 20 µM [falling, partial curve, poor fit]",–
Clc1cccc(Cl)c1C[n+]1ccc2ccccc2c1,–,inactive
Cc1oc(-c2ccccc2)nc1CS(=O)CC(=O)O (stereo unspecified),–,inconclusive: 20.8%
CC1(C)O[C@@H]2C[C@H]3[C@@H]4C[C@H](F)C5=CC(=O)CC[C@]5(C)[C@H]4[C@@H](O)C[C@]3(C)[C@]2(C(=O)CO)O1,–,inconclusive: -9.54%
O=C(NC1CCCCC1)N1CCCC(c2nc3ccccc3[nH]2)C1 (stereo unspecified),–,inconclusive: 8.55%
CSc1ccc(Cl)c(C(=O)Nc2cc(S(=O)(=O)N3CCOCC3)ccc2N2CCOCC2)c1,–,inconclusive: 7.36%
C[C@@]12C(=O)N(CC3CCCO3)CC(=O)N1[C@H]1c3cc(Cl)ccc3OC[C@@H]1[C@@H]2c1ccccc1 (stereo partly specified),–,inconclusive: -0.39%
CC(C)(C)C(=O)Cn1ncc(Br)c(Br)c1=O,–,inconclusive: 1.72%
Cc1ccc(C23CC4CC(CC(C(N)=O)(C4)C2)C3)cc1,–,inconclusive: -1.72%
COC(=O)[C@@H](NC(=O)O[C@H]1C(=O)c2ccc(OC)cc2O[C@@H]1c1ccc2c(c1)OCO2)C(C)C,–,inconclusive: 3.29%
O=C(NNc1ccccc1[N+](=O)[O-])Nc1ccc(Cl)c(Cl)c1,–,inconclusive: 1.2%
Cc1ccc(OCc2nnc(N)s2)cc1,–,inconclusive: -1.84%
Cc1ccc(S(=O)(=O)N(C)CC(=O)NCc2ccncc2)cc1,–,inconclusive: 2.09%

Compound,Potency,"activity change, negative = inhibition"
Cc1cc(C(F)F)n2nc(C(=O)Nc3cccc(C(F)(F)F)c3)nc2n1,–,inconclusive: -1.94%
CN1C(=O)CSc2ccc(NC(=O)Nc3ccccn3)cc21,–,inconclusive: 17%
COc1ccc(CNC(=S)Nc2ccc3nc(N4CCOCC4)cc(C)c3c2)cc1,–,inconclusive: 25.1%
COC(=O)C(C)NC(=S)N1CCN(c2c(F)cc3c(=O)c(C(=O)O)cn(C4CC4)c3c2OC)CC1C (stereo unspecified),–,inactive
CCN(CC)c1ccc2nc3ccc(N)cc3[n+](-c3ccccc3)c2c1,"inconclusive: 9.2 µM [activator, partial curve]",–
FC(F)(F)c1cccc(N2CCN(C(=S)NC3CCCC3)CC2)c1,"inconclusive: 20.6 µM [falling, single point]",–
Cc1cc(C(=O)CSc2cccc[n+]2[O-])c(C)n1-c1ccc(Br)cc1,"inconclusive: 35.5 µM [cytotoxic, single point]",–
COc1ccc(-n2c(SCC(=O)NCC3CCCO3)nc3ccccc32)cc1 (stereo unspecified),–,inconclusive: 1.55%
CC1CCN(C(=O)N2c3ccccc3Sc3ccccc32)CC1,"inconclusive: 5.17 µM [rising, partial curve, poor fit]",–
COc1cccc(C(=O)Nc2ccc3c(c2)CCCN3C(=O)c2cccs2)c1OC,–,inconclusive: 3.74%
CC(OC(=O)c1ccc2ccccc2n1)C(=O)c1ccccc1 (stereo unspecified),–,inconclusive: 10.6%
Cc1ccc(-n2ncc3c(NCCc4ccccc4)ncnc32)cc1,–,inconclusive: 20.5%
COc1ccc2oc(C(=O)OCC(=O)Nc3ccc(NC(C)=O)cc3)c(C)c2c1,–,inactive
CCOC(=O)c1cc(-c2ccccc2)nn1-c1ccccn1,–,inconclusive: -4.35%
CN(C(=O)c1ccc(NC(=O)Cc2ccc(NC(=O)C3CCN(C(=O)C4CCC4)CC3)cc2)cc1)C1CC1,–,inactive
COCCn1c(SC(C)C(=O)NCC2CCCO2)nc2scc(-c3ccc(F)cc3)c2c1=O (stereo unspecified),–,inconclusive: 11.9%
Cc1ccc(S(=O)(=O)N2CCC(C(=O)NCCCN3CCCC3=O)CC2)cc1C,–,inactive
COc1ccc(S(=O)(=O)N2CCCCC2)cc1NC(=O)C1CC(=O)N(Cc2ccccc2)C1 (stereo unspecified),–,inactive
Cc1cc(=O)oc2ccc(OCC(=O)N(Cc3ccc(F)cc3)Cc3ccco3)cc12,"inconclusive: 29.1 µM [falling, single point]",–
Cc1noc(C)c1COc1ccc(C(=O)NCC(c2c(F)cccc2Cl)N(C)C)cc1 (stereo unspecified),–,inactive
COc1ccccc1OS(=O)(=O)c1ccc(NC(C)=O)cc1,–,inactive
COc1ccc(C(C(=O)NC2CCCCC2)N(Cc2cccnc2)C(=O)c2snc(C(N)=O)c2N)cc1 (stereo unspecified),–,inactive
O=C(CCc1ccccc1)Nc1ccc(F)cc1F,"inconclusive: 25.9 µM [falling, partial curve, poor fit]",–
COc1ccc(NC(=O)c2ccco2)cc1NC(=O)c1cccnc1,–,inconclusive: 1.17%
CC1=C(C(=O)OC2CCCCCCC2)C(c2ccc(O)cc2)NC(=O)N1 (stereo unspecified),"inconclusive: 28.2 µM [falling, partial curve, poor fit]",–
COc1ccc(Nc2nc(-c3ccccc3)c(C(=O)Nc3cccnc3)s2)cc1,–,inconclusive: 12.2%

Compound,Potency,"activity change, negative = inhibition"
COc1cccc(C(=O)OCC(=O)Nc2cc(C)c(C)cc2[N+](=O)[O-])c1,–,inconclusive: -1.71%
CN(C)S(=O)(=O)c1cccc(NC(=S)NC23CC4CC(CC(C4)C2)C3)c1,"inconclusive: 35.5 µM [falling, partial curve, poor fit]",–
COC(=O)COc1cccc2c(=O)n(CC(=O)Nc3ccc4c(c3)OCCO4)ccc12,–,inconclusive: 8.01%
Cn1c(=O)c(Cc2ccccc2)c(O)c2ccccc21,–,inconclusive: 0.146%
O=C(CCN1C(=O)/C(=C/c2ccccc2Cl)SC1=S)NC1CCS(=O)(=O)C1 (stereo unspecified),"inconclusive: 17.8 µM [falling, single point]",–
c1ccc(Nc2nc(CSc3ncn[nH]3)cs2)cc1,"inconclusive: 35.5 µM [falling, single point]",–
CCOC(=O)c1[nH]ncc1[C@@H]1C[C@H]2CN(Cc3cccc(Cl)c3)C(=O)[C@]23CCCN13,–,inconclusive: 2.43%
COc1ccc(Oc2c(C=O)c3ccccc3n2C)cc1,–,inactive
O=[N+]([O-])c1cccc(-c2noc(-c3cccs3)n2)c1,–,inconclusive: 11.4%
CC(CCc1ccccc1)NC(=O)c1ccccc1 (stereo unspecified),–,inconclusive: -29.8%
CC(=O)Nc1nc2nc(-c3ccccc3)cc(-c3ccccc3)n2n1,–,inconclusive: 6.64%
COc1ccccc1N1CSC2=C(C#N)C(c3ccc(SC)cc3)CC(=O)N2C1 (stereo unspecified),–,inactive
O=C(COC(=O)c1ccc2c(c1[N+](=O)[O-])C(=O)c1ccccc1C2=O)NC1CC1,–,inconclusive: 8.92%
CCCc1cc(NC(=O)CCl)n(-c2ccccc2)n1,"inconclusive: 11.2 µM [falling, partial curve, poor fit]",–
Cc1ccc(C(=O)Nc2ccc(-n3c(C)nc4ccccc4c3=O)cc2)cc1[N+](=O)[O-],–,inconclusive: 0.645%
CCCCn1c(=S)[nH]c2cc(S(=O)(=O)N3CCCCC3)ccc21,"inconclusive: 0.731 µM [rising, full curve, poor fit]",–
O=C(CN1CCC(NC(=O)Nc2ccc(F)cc2)CC1)Nc1ccccc1[N+](=O)[O-],–,inconclusive: -15.6%
COc1ccc(C2COC(=O)C2=N)c(NC(=O)c2ccccc2)c1 (stereo unspecified),–,inconclusive: -15.1%
Cc1ccc(S(=O)(=O)N(CC(=O)Nc2ccc(Cl)c([N+](=O)[O-])c2)C2CCCCC2)cc1,"inconclusive: 0.82 µM [rising, full curve, poor fit]",–
O=C(NCCC1=CCCCC1)c1c(O)nc2sccn2c1=O,"inconclusive: 20.6 µM [falling, single point]",–
O=C(Cn1cc(/C=N/NC(=O)c2ccccc2Br)c2ccccc21)Nc1ccc(F)cc1,"inconclusive: 20.6 µM [falling, single point]",–
CSc1nc2ccc(NS(=O)(=O)c3ccc([N+](=O)[O-])cc3)cc2s1,–,inconclusive: 4.56%
O=C(NC(NNc1ccc([N+](=O)[O-])cc1)(C(F)(F)F)C(F)(F)F)c1ccccc1Cl,–,inconclusive: -0.422%
O=C(Nc1ccccc1C(=O)NCCc1ccccc1)c1ccco1,–,inconclusive: 19.2%
